Some of these results come from one statement about several compounds together. At least one compound was matched to its structure with a doubt left.
Tested on: various E. coli strains
Experiment: Antibacterial activity against a panel of E. coli strains
Format: cell-based, Escherichia coli
Settings: iron limitation (200 μM 2,2′-dipyridyl)
Procedure: Overnight cultures of the bacterial strains were prepared by inoculating 5 mL of LB with the bacterial freezer stocks and the cultures were incubated at 37° C. in a tabletop incubator shaker set at 150 rpm. The overnight culture grew to saturation and was diluted 1:100 into 5 mL of fresh LB medium containing DP (200 μM) and incubated at 37° C. with shaking at 150 rpm until OD600 reached 0.6. The cultures were subsequently diluted to an OD600 value of 0.001 in 50% MHB medium (11.5 g/L) with or without DP (200 μM). No antibiotic marker was included in these cultures. A 90-μL aliquot of the diluted culture was combined with a 10-μL aliquot of a 10× solution of the tested compounds in a 96-well plate, which was wrapped in […] and incubated at 30° C. with shaking at 150 rpm for 19 h. Bacterial growth was determined by measuring OD600 using a BIOTEK SYNERGY HT plate reader. Each well condition was prepared in duplicate, and at least three independent replicates were conducted on different days. The resulting mean OD600 are reported and the error bars are the standard deviation.
Ampicillin and amoxicillin are β-lactam antibiotics that have periplasmic targets in Gram-negative bacteria and inhibit cell wall biosynthesis. The antibacterial activity of Ent-ampicillin and Ent-amoxicillin conjugates 44 and 45 was evaluated in vitro against a panel of Gram-negative and positive-bacteria. […]

## CC1(C)SC2C(NC(=O)C(NC(=O)CCCc3cn(CCOCCOCCOCCNC(=O)c4cc(O)c(O)c(C(=O)NC5COC(=O)C(NC(=O)c6cccc(O)c6O)COC(=O)C(NC(=O)c6cccc(O)c6O)COC5=O)c4)nn3)c3ccc(O)cc3)C(=O)N2C1C(=O)O (stereo not drawn) [Ent-Amx]
  improved activity compared to the unmodified antibiotics: 100- to 1000 fold

## CC1(C)SC2C(NC(=O)C(NC(=O)CCCc3cn(CCOCCOCCOCCNC(=O)c4cc(O)c(O)c(C(=O)NC5COC(=O)C(NC(=O)c6cccc(O)c6O)COC(=O)C(NC(=O)c6cccc(O)c6O)COC5=O)c4)nn3)c3ccccc3)C(=O)N2C1C(=O)O (stereo not drawn) [Ent-Amp]
  improved activity compared to the unmodified antibiotics: 100- to 1000 fold
